Experimental data from patent publication US20240108662A1, “ENGINEERED CELLS FUNCTIONALIZED WITH IMMUNE CHECKPOINT MOLECULES AND USES THEREOF” (The University of North Carolina at Chapel Hill, priority 2020, published 2024).

Test: Proteomic analysis of native murine pancreata and decelled pancreatic ECM (Table 1)
Set-up: species or system mouse
Settings: for Pancreatic ECM: Mean of log2(intensities): abundance of the listed protein in decelled pancreatic ECM; for Native pancreas tissue: Mean of log2(intensities): abundance of the listed protein in native murine pancreas tissue

Row | Molecule | Pancreatic ECM: Mean of log2(intensities) [a.u.] | Native pancreas tissue: Mean of log2(intensities) [a.u.]
1 | Q9QXB9 (protein, UniProt Q9QXB9 1-364, looked up, full-length) MGILEKISEIEKEIARTQKNKATEYHLGLLKAKLAKYRAQLLEPSKSASSKGEGFDVMKSGDARVALIGFPSVGKSTFLSLMTSTASEAASYEFTTLTCIPGVIEYKGANIQLLDLPGIIEGAAQGRGRGRQVIAVARTADVVVMMLDATKGDVQRSLLEKELESVGIRLNKHKPNIYFKPKKGGGISFNSTVTLTQCSEKLVQLILHEYKIFNAEVLFREDCSPDDFIDVIVGNRVYMPCLYVYNKIDQISMEEVDRLARKPNSVVISCGMKLNLDYLLEMLWEYLALTCIYTKKRGQRPDFTDAIILRKGASVEHVCHRIHRSLASQFKYALVWGTSTKYSPQRVGLTHTMEHEDVIQIVKK | 24.79 | 21.63
2 | Q922P9 (protein, UniProt Q922P9 1-546, looked up, full-length) MAAVSLRLGDLVWGKLGRYPPWPGKIVNPPKDLKKPRGKKCFFVKFFGTEDHAWIKVEQLKPYHAHKEEMIKINKGKRFQQAVDAVEEFLRRAKGKDQTSSHTSADDKNRRNSSEERSRPNSGDEKRKLSLSEGKVKKNMGEGKKRVTSGSADRGSKCLKRAQEQSPRKRGRPPKDEKDLTIPESSTVKGMMAGPMAAFKWQPTATEPVKDADPHFHHFLLSQTEKPAVCYQAITKKLKICEEETGSTSIQAADSTAVNGSITPTDKKIGFLGLGLMGSGIVSNLLKMGHTVTVWNRTAEKEGARLGRTPAEVVSTCDITFACVSDPKAAKDLVLGPSGVLQGIRPGKCYVDMSTVDADTVTELAQVIVSRGGRFLEAPVSGNQQLSNDGMLVILAAGDRGLYEDCSSCFQAMGKTSFFLGEVGNAAKMMLIVNMVQGSFMATIAEGLTLAQVTGQSQQTLLDILNQGQLASIFLDQKCQNILQGNFKPDFYLKYIQKDLRLAIALGDAVNHPTPMAAAANEVYKRAKALDQSDNDMSAVYRAYIH | 25.53 | 22.44
3 | Q8K363 (protein, UniProt Q8K363 1-660, looked up, full-length) MSQLQMKLLRRKIEKRNAKLRQRNLKLQETSDTSLSQPQNGDVPKETGKGGKVKKALKRSVPVDSAEAQSGGMPEETLENGKVKKSPQKLTTLANGEAAPTPPPDSEVKKKKKKKRKMANDAGPDTKKAKTEESAEACEEPEDDVKKADDSEVPSLPLGLTGAFEDTSFASLSNLVNENTLKAIEEMGFKRMTEIQHKSIRPLLEGRDLLAAAKTGSGKTLAFLIPVIELIVKLKFMPRNGTGVLILSPTRELAMQTFGVLKELMTHHVHTYGLIMGGSNRSAEVQKLLNGINIIVATPGRLLDHMQNTPGFMYKNLQCLVIDEADRILDVGFEEELKQIIKLLPARRQTMLFSATQTRKVEDLARISLKKEPLYVGVDDDKEVATVDGLEQGYVVCPSEKRFLLLFTFLKKNRKKKVMVFFSSCMSVKYHYELLNYIDLPVLAIHGKQKQNKRTTTFFQFCNADSGILLCTDVAARGLDIPEVDWIVQYDPPDDPKEYIHRVGRTARGLNGRGHALLILRPEELGFLRYLKQSKVPLNQFDFSWSKVSDIQSQLEKLIEKNYFLHKSAQEAYKSYIRAYDSHSLKQIFNVNNLNLPQVALSFGFKVPPFVDLNVSSHDGKLKKRGGGGGFGYQKTKKVEKSKIFKHISKKPADRRQFSH | 24.85 | 21.77
4 | Q80UJ7 (protein, UniProt Q80UJ7 1-981, looked up, full-length) MAADSEPESEVFEITDFTTASEWERFISKVEEVLNDWKLIGPSLGKPLEKGIFTSGTWEERSDEISFADFRFSVTHHYLVQESPDKERKDEELEDAIPQSMQDLLCMNNDFPPRAHCLVRWYGLREFVVIAPAAHSDAVLSESKCNLLLSSISIALGNTGCQVPLFVQIHHKWRRMYMGECQGPGVRTDFEMVHLRKVPSQYTHLSGLLDIFKSKIGCPLTPLPPVSIAIRLTYVLQDWQQYFWPQQPPDIDALVGGEVGGLEFGKLPFGACEDPISELHLATTWPHLTEGIIVDNDVYSDLDPVQAPHWSVRVRKADNPQCLLGDFVTEFLKICRRKESTDEILGRSTFEEEGREVADITHALSKLTEPAPVPIHKLSVSNMVHTAKKKIRKHRGEESPLNSDVLNTILLFLFPDAVSEKPLDGTTSIDNSIPAPEAGDYTLYNQFKSAPSDSLTYKLALCLCMINFYHGGLKGVAHLWQEFVLEMRFRWENNFLIPGLASGSPDLRCCLLHQKLQMLNCCIERKKARDEGKKTSLSDSTTSAYPGDAGKTGGQLGLDHLRDTEKEKGEVGKSWDSWSDSEEEFFECLSDTEDLKGNGQESGKKGGPKEMANLKPEGRLHQHGKLTLLHNGEPLYIPVTQEPAPMTEDLLEEQSEVLAKLGTSAEGAHLRARMQSACLLSDMESFKAANPGCFLEDFVRWYSPRDYIEEEVTDEKGNVVLKGELSARMKIPSNMWVEAWETAKPVPARRQRRLFDDTREAEKVLHYLAMQKPADLARHLLPCVIHAAVLKVKEEESLENIPSVKKIIKQIIAHSSKVLHFPNPEDKKLEEIILQITTVEAIIARARSLKAKFGTEKCEHEEEKEGLERFVSCLLEQPEVSVTGAGRGHAGRIIHKLFVNAQRAAAVALPEEELKKSGCPEERRQTLVSDFPPPAGRELILRATVPRPAPYSKALPQRMYSVLTKEDFRLAGAFSSDTSFF | 24.74 | 21.67
5 | Q9CQZ0 (protein, UniProt Q9CQZ0 1-153, looked up, full-length) MNVGVAHSEVNPNTRVMNSRGIWLAYIILVGLLHVVLLSIPFFSIPVVWTLTNVIHNLAMYIFLHTVKGTPFETPDQGKARLLTHWEQMDYGLQFTSSRKFLSISPIVLYLLASFYTKYDAAHFLINTASLLSVLLPKLPQFHGVRLFGINKY | 24.61 | 21.55
6 | Q6A026 (protein, UniProt Q6A026 1-1332, looked up, full-length) MDFTQPKPATALCGVVSADGKIAYPPGVKEITDKITTDEMIKRLKMVVKTFMDMDQDSEDEKQQYLPLALHLASEFFLRNPNKDVRLLVACCLADIFRIYAPEAPYTSHDKLKDIFLFITRQLKGLEDTKSPQFNRYFYLLENLAWVKSYNICFELEDCNEIFIQLFRTLFSVINNSHNTKVQMHMLDLMSSIIMEGDGVTQELLDSILINLIPAHKNLNKQSFDLAKVLLKRTVQTIEACIANFFNQVLVLGRSSVSDLSEHVFDLIQELFAIDPQLLLSVMPQLEFKLKSNDGEERLAVVRLLAKLFGSKDSDLATQNRPLWQCFLGRFNDIHVPVRLESVKFASHCLMNHPDLAKDLTEYLKVRSHDPEEAIRHDVIVTIITAAKRDLALVNDQLLGFVRERTLDKRWRVRKEAMMGLAQLYKKYCLHGEAGKEAAEKVSWIKDKLLHIYYQNSIDDKLLVEKIFAQYLVPHNLETEERMKCLYYLYASLDPNAVKALNEMWKCQNMLRSHVRELLDLHKQPTSEANCSAMFGKLMTIAKNLPDPGKAQDFVKKFNQVLGDDEKLRSQLELLISPTCSCKQADVCVREIARKLANPKQPTNPFLEMVKFLLERIAPVHIDSEAISALVKLMNKSIEGTADDEEEGVSPDSAIRSGLELLKVLSFTHPTSFHSAETYESLLQCLRMEDDKVAEAAIQIFRNTGHKIETDLPQIRSTLIPILHQKAKRGTPHQAKQAVHCIHAIFSNKEVQLAQIFEPLSRSLNADVPEQLITPLVSLGHISMLAPDQFASPMKSVVANFIVKDLLMNDRSTGEKNGKLWSPDEEVSPEVLAKVYLLRLLVRWLLGMKNNQSKSANSTLRLLSAMLVSEGDLTEQKRISKSDMSRLRLAAGSAIMKLAQEPCYHEIITPEQFQLCALVINDECYQVRQIFAQKLHKALVKLLLPLEYMAIFALCAKDPVKERRAHARQCLLKNISIRREYIKQNPMATEKLLSLLPEYVVPYMIHLLAHDPDFTRSQDVDQLRDIKECLWFMLEVLMTKNENNSHAFMKKMAENIKLTRDAQSPDESKTNEKLYTVCDVALCVINSKSALCNADSPKDPVLPMKFFTQPEKDFCNDKSYISEETRVLLLTGKPKPTGVLGTVNKPLSATGRKPYVRSAGTETGSNINANSELSPSAGSRSREQSSEASETGVSENEENPVRIISVTPVKNIDTVKNKEINSDQSTQGNISSDRGKKRIVTAAGAENIQKPDEKVDESGPPAPSKPRRGRRPKSESQGNATKNDDLNKPVSKGRKRAAGSQESLEAGNAKAPKLQDGAKKAVPAERQIDLQR | 25.72 | 22.68
7 | Q569Z6 (protein, UniProt Q569Z6 1-951, looked up, full-length) MSKTNKSKSGSRSSRSRSASRSRSRSFSKSRSRSRSVSRSRKRRLSSRSRSRSYSPAHNRERNHPRVYQNRDFRGHNRGYRRPYYFRGRNRGFYPWGQYNRGGYGNYRSNWQNYRQAYSPRRGRSRSRSPKRRSPSPRSRSHSRNSDKSSSDRSRRSSSSRSSSNHSRVESSKRKSTKEKKSSSKDSRPSQAAGDNQGDEAKEQTFSGGTSQDIKGSESSKPWPDATTYGAGSASRASVSDLSPRERSPALKSPLQSVVVRRRSPRPSPVPKPSPPLSNASQMGSSMSGGAGYQSGAHQGQFDHGSGSLSPSKKSPVGKSPPATGSAYGSSQKEESAASGGAAYSKRYLEEQKTENGKDKEQKQTNADKEKLKEKGGFSDADVKMKSDPFAPKTDSEKPFRGSQSPKRYKLRDDFEKKMADFHKEELDEHDKDKSKGRKEPEFDDEPKFMSKVIAGASKNQEEEKSGKWESLHTGKEKQRKAEEMEDEPFTERSRKEERGGSKRSESGHRGFVPEKNFRVTAYKAVQEKSSSPPPRKTSESRDKLGSKGDFSSGKSSFSITREAQVNVRMDSFDEDLARPSGLLAQERKLCRDLVHSNKKEQEFRSIFQHIQSAQSQRSPSELFAQHIVTIVHHVKEHHFGSSGMTLHERFTKYLKRGNEQEAAKNKKSPEIHRRIDISPSTFRKHGLTHEELKSPREPGYKAEGKYKDDPVDLRLDIERRKKHKERDLKRGKSRESVDSRDSSHSRERSTEKTEKTHKGSKKQKKHRRARDRSRSSSSSSQSSHSYKAEEYPEEAEEREESTSGFDKSRLGTKDFVGPNERGGRARGTFQFRARGRGWGRGNYSGNNNNNSNNDFQKRSREEEWDPEYTPKSKKYYLHDDREGEGSDKWMGRGRGRGAFPRGRGRFMFRKSSTSPKWAHDKFSGEEGEIEDDESGTENREEKDSLQPSAE | 25.65 | 22.61
8 | Q5XJY4 (protein, UniProt Q5XJY4 1-377, looked up, full-length) MALQGWVQRGWRCGPAWAPPLGGGYRELSATQAPRLLGRRFNLFVQQKCGFRKAPRKVEPRRSDTGSSGEAYKRSALIPPLEETVFYPSPYPIRTLVKPFFFTIGFTGCAFGSAAIWQYESLKSRVQSYFDGIKADWLDSIRPQKEGNLRKEINKWWNSLSDGQRTVTGIIAANALVFCLWRVPSLQRTMIRYFTSNPASKVLCSPMLLSTFSHFSLFHMAANMYVLWSFSSSIVNILGQEQFVAVYLSAGVISNFVSYVCKVATGRYGPSLGASGAIMTVLAAVCTKIPEGRLAIIFLPVFTFTAGNALKAIIAMDTAGMILGWKFFDHAAHLGGALFGIWYITYGHELIWKNREPLVKIWHEIRTNGPKKGGGSK | 25.07 | 22.03
